Source: publication doi:10.1101/2023.08.17.553727

Key:
Experiment in all cases: co-IP
[1] = biological target: T1, RCN1-GFP (Arabidopsis thaliana) (UniProt Q38845)
T1 sequence: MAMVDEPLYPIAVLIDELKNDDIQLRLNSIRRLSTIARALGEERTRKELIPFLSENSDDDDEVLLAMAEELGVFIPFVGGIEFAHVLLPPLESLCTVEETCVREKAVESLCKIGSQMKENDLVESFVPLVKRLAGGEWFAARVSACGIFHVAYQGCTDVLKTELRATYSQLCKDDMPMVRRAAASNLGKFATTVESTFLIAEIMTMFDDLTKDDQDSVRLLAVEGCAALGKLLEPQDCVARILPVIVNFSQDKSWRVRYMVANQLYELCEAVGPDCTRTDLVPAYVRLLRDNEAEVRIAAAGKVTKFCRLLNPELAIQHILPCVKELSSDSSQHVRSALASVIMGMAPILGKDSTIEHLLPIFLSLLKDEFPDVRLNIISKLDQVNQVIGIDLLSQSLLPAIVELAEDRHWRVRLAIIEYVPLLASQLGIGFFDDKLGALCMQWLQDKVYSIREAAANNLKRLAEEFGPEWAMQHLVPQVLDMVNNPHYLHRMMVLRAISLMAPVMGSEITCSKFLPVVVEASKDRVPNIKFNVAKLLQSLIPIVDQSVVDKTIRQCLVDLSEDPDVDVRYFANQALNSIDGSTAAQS

[2] = biological target: T2, YFP-B’α (Arabidopsis thaliana) (UniProt O04375)
T2 sequence: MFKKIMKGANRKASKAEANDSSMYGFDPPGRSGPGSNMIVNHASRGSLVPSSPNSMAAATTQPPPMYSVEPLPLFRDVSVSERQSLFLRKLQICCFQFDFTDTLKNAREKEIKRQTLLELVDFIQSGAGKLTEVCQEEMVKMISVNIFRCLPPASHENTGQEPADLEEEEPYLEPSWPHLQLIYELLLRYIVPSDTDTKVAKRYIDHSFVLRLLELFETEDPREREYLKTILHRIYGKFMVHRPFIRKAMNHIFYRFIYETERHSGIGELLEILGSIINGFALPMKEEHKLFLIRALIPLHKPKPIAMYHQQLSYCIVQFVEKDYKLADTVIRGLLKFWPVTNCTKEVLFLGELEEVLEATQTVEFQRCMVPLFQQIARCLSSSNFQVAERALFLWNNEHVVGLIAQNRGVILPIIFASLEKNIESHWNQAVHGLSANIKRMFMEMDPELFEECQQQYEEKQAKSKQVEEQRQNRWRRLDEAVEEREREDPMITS

[3] = biological target: T3, YFP-B’β (Arabidopsis thaliana) (UniProt O04376)
T3 sequence: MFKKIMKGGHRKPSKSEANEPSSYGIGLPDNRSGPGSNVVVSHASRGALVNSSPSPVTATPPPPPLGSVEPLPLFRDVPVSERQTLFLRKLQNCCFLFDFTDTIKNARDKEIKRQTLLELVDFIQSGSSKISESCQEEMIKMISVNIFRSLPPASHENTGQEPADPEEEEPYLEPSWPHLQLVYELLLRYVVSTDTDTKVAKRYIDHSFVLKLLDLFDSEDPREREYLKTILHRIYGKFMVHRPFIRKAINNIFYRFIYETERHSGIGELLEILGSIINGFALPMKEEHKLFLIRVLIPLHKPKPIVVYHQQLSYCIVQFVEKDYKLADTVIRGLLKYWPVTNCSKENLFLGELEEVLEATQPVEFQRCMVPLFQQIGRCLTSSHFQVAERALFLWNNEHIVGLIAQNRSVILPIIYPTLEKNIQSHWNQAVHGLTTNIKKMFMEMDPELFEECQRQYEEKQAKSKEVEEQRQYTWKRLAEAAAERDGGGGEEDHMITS

Measured: binding

PP2A C subunit (enzyme)
binds: all assays above

These are yes or no findings as the source states them, for the method shown. Binding seen in cells or lysates may run through a third protein. A result given as binding can be weak or reduced; the word gives no strength. Tags and fused reporters may be left off the sequences shown.
